These are yes or no findings as the source states them, for the method shown. In cells and extracts the contact can be indirect. A yes stands for co-enrichment or nearness to the bait. Other partners may have been found.
What follows are substances tested against T1, SATB2 (mouse (endogenous in colonic glands)) (UniProt Q8VI24) (assay: affinity purification with mass spectrometry; anti-SATB2 antibody on protein A/G magnetic beads; mouse proximal colon epithelial glands cross-linked with 2 mM DSG, lysed in 0.3 M RIPA buffer, 6 washes; gel region over 100 kDa analysed by LC-MS/MS; IgG control).
T1 sequence: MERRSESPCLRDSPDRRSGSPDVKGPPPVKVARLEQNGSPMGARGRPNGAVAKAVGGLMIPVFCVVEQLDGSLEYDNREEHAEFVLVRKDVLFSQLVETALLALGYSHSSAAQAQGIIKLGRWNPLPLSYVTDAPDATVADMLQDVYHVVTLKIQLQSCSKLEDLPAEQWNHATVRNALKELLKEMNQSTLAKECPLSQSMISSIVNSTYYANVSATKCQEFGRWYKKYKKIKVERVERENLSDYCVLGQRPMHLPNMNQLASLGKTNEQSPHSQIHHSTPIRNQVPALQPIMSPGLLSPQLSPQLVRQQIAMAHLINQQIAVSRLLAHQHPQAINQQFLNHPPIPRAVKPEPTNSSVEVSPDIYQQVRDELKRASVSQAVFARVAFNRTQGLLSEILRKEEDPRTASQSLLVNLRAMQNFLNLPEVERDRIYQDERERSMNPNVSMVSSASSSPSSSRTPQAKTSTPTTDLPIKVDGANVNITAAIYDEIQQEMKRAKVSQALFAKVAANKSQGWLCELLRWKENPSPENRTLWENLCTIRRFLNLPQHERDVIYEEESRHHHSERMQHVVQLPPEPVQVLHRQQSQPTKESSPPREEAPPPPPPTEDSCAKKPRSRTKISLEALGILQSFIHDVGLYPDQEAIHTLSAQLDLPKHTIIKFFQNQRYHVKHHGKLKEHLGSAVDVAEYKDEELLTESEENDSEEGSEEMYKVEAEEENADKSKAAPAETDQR

Sequences of proteins named here, by UniProt entry; tags and fusion partners are left off.
UniProt Q8CHY6: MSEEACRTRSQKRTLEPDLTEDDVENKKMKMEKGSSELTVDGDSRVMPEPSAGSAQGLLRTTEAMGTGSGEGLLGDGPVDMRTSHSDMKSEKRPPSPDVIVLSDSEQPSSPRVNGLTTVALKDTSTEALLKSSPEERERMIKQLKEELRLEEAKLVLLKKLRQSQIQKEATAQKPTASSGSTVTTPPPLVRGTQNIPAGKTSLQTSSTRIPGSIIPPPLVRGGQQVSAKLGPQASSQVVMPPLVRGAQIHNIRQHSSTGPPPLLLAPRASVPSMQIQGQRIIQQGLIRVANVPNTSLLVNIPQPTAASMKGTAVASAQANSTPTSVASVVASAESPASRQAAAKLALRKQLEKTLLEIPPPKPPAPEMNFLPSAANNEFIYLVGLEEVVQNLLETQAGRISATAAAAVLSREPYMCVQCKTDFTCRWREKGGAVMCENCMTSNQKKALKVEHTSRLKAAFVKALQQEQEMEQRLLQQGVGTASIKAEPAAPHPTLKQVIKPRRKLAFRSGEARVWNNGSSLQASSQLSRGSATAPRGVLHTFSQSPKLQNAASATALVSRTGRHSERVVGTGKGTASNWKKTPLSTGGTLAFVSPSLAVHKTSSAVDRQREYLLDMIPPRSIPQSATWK
UniProt Q3TKT4: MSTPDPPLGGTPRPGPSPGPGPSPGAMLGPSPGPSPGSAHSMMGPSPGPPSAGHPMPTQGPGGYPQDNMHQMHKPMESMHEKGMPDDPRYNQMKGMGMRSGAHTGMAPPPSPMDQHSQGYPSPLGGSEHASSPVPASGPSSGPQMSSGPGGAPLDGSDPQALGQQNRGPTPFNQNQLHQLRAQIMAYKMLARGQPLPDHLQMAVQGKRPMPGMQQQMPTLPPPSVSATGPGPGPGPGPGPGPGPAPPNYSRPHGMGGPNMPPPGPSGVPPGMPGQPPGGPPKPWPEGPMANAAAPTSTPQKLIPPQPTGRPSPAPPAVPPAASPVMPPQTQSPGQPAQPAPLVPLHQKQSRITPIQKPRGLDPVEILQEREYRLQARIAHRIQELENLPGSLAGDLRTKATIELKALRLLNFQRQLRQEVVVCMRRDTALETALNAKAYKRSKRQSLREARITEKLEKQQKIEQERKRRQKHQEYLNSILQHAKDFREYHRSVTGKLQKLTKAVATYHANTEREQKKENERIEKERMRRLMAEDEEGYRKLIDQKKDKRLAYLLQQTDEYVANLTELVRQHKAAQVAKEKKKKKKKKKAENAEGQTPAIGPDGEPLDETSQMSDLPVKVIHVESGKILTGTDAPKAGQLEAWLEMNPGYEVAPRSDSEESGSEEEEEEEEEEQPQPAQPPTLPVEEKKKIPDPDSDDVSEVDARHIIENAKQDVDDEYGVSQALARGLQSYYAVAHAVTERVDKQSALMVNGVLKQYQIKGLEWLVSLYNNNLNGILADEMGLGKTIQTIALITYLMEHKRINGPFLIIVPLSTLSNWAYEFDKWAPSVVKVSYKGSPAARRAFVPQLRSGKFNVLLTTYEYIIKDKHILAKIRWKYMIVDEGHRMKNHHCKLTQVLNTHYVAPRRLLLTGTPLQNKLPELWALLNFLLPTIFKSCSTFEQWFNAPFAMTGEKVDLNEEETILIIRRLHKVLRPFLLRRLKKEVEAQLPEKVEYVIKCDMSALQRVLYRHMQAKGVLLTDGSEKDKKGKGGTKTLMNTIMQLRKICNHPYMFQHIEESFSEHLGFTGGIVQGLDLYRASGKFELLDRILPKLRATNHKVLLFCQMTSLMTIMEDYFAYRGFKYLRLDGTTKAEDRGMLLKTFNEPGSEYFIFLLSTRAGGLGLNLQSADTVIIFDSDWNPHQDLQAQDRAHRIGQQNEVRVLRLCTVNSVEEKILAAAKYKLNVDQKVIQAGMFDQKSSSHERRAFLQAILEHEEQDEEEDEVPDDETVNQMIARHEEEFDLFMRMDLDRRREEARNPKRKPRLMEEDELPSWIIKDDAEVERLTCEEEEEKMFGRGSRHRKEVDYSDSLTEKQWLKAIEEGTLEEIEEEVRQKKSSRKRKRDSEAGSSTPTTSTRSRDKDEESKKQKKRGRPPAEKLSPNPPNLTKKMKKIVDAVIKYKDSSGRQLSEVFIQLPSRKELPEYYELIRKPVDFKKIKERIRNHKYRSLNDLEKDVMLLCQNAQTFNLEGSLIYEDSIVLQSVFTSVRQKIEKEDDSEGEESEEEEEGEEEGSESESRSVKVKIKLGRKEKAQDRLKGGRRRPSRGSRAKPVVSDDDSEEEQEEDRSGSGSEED
UniProt P56546: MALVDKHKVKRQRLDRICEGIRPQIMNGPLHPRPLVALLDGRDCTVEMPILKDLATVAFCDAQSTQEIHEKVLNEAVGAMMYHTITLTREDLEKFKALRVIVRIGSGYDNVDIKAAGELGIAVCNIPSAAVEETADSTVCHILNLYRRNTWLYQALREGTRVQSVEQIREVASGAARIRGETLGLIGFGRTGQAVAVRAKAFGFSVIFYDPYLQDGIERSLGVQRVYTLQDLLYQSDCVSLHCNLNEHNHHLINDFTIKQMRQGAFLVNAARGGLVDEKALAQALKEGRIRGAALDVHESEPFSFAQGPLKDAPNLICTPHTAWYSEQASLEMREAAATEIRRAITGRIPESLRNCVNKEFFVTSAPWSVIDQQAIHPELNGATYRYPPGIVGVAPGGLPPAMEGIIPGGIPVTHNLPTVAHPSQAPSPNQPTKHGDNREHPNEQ
UniProt Q99JR8: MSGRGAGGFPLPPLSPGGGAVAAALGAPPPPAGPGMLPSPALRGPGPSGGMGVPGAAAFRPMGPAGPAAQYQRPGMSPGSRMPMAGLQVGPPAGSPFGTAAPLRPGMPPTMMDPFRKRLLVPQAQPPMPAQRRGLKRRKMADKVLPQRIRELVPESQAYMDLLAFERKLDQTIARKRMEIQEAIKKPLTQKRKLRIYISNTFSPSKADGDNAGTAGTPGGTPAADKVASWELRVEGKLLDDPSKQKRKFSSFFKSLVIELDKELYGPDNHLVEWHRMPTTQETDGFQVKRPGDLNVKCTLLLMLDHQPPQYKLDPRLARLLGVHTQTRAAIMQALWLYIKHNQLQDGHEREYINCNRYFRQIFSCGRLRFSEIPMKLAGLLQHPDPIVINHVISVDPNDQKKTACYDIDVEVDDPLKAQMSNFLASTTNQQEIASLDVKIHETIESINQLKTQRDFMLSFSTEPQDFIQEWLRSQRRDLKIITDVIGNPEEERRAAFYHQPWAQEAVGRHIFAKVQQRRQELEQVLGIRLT
UniProt Q91ZW3: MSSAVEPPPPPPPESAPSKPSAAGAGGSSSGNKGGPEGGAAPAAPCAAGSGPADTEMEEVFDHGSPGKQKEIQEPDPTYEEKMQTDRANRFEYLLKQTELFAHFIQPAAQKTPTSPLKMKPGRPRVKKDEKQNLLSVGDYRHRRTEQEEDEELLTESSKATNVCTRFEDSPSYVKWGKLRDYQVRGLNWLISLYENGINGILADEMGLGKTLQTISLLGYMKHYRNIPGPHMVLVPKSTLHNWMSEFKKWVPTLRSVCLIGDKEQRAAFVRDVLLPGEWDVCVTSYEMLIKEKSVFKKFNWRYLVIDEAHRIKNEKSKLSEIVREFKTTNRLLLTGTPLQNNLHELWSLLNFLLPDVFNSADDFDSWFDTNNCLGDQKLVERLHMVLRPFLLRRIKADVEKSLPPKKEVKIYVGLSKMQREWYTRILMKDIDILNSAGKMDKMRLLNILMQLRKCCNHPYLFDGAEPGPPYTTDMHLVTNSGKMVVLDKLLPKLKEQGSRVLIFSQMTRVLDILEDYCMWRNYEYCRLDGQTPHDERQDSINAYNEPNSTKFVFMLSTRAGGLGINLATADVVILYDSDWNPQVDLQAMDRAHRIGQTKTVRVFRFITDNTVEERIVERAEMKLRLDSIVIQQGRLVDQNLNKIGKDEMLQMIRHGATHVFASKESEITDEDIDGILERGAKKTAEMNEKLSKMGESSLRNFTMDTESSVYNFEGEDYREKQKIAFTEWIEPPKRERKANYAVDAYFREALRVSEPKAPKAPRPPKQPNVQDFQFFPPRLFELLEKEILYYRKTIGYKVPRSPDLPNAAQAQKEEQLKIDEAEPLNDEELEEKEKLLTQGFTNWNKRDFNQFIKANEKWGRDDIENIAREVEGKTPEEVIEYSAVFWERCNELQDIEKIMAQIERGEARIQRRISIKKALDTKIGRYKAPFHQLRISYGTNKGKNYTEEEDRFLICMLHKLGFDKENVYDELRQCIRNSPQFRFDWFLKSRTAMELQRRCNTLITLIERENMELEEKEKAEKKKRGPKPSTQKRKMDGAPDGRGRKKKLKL

| binding | Substance |
| --- | --- |
| binds | GATAD2A (from UniProt Q8CHY6 1-629) |
| binds | SMARCA4 (from UniProt Q3TKT4 1-1613) |

More lines, now with the values behind:

| Substance | binding |
| --- | --- |
| CTBP2 (from UniProt P56546 1-445) | binds |
| SMARCD2 (from UniProt Q99JR8 1-531) | binds |
| SMARCA5 (from UniProt Q91ZW3 1-1051) | binds |

— article PMC11055869
